Data as given in PubChem BioAssay AID743454 (Peter MacCallum Cancer Centre, 2014)

Test: 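Search for knock-downs that restore vorinostat killing in resistant colon cancer cells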 (primary screen)
System: human HCT116-VR colon cancer cells, selected for vorinostat resistance
Reagents: siRNA pool against human genes, 40 nM siRNA pool
Time to read-out: vorinostat for 24 h, read-out about 72 h after transfection
Challenge: vorinostat at 2.5 µM final
Measurement: 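Two measures, CellTiter-Fluor viability and luminescent caspase 3/7 activity, each as fold change against same-plate mock wells, mean of duplicates, then screen-wide robust z-score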
Reading the numbers: viability robust z-score: higher = more viable cells than screen typical; caspase robust z-score: higher = more caspase 3/7 activity than screen typical
Active means: 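a knock-down is a hit when classed RV1 or RV2 for lowered viability, or CA1 or CA2 for caspase activation; those lethal without drug were dropped; hits were retested singly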
The deposit covers about 18,000 reagents; this is a random part of them. 450 of all reagents (2.5%) count as active. 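Single biological run; no consistent viability z cut-off exists, so the class columns, not z-scores, define the calls.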

Gene,viability hit class,caspase hit class,viability robust z-score,caspase robust z-score,activity call
LAS1L (LAS1 like ribosome biogenesis factor),no change,no change,-0.78,0.15,inactive
SKIC2 (SKI2 subunit of superkiller complex),no change,CA2 (caspase activation),-2.46,5.54,active
INSIG1 (insulin induced gene 1),no change,no change,0.82,-1.1,inactive
TMEM45B (transmembrane protein 45B),no change,no change,-0.75,-0.69,inactive
SPN (sialophorin),no change,no change,-1.06,3.1,inactive
SOX17 (SRY-box transcription factor 17),no change,no change,0.62,-0.68,inactive
HJURP (Holliday junction recognition protein),no change,no change,-0.82,-0.9,inactive
SPIC (Spi-C transcription factor),no change,no change,0.32,-0.87,inactive
SIRT6 (sirtuin 6),no change,no change,0.05,0.68,inactive
ANKRD36 (ankyrin repeat domain 36),no change,no change,0.84,1.6,inactive
RNH1 (ribonuclease/angiogenin inhibitor 1),no change,no change,1.42,0.4,inactive
SEPTIN1 (septin 1),no change,no change,1,0.18,inactive
DCD (dermcidin),no change,no change,-1.88,0.86,inactive
CTXN1 (cortexin 1),no change,no change,0.36,1.23,inactive
CEP57 (centrosomal protein 57),no change,no change,-0.33,-0.52,inactive
GTF3C6 (general transcription factor IIIC subunit 6),no change,no change,0.64,-0.03,inactive
METTL17 (methyltransferase like 17),no change,no change,1.5,-0.69,inactive
DNAJC1 (DnaJ heat shock protein family (Hsp40) member C1),no change,no change,-0.76,-0.82,inactive
MIDN (midnolin),no change,no change,-0.94,-0.28,inactive
ABHD8 (abhydrolase domain containing 8),no change,no change,0.79,0.52,inactive
SPIB (Spi-B transcription factor),no change,no change,-1.61,0.69,inactive
LUC7L (LUC7 like),no change,no change,-2.32,1.15,inactive
GPATCH8 (G-patch domain containing 8),no change,no change,0.57,1.55,inactive
IFNA10 (interferon alpha 10),no change,no change,0.69,0.8,inactive
PDGFRL (platelet derived growth factor receptor like),no change,no change,0.23,0.46,inactive
HIBADH (3-hydroxyisobutyrate dehydrogenase),no change,no change,0.16,2.58,inactive
GNRH2 (gonadotropin releasing hormone 2),no change,no change,0.36,-0.7,inactive
"PCDHGB5 (protocadherin gamma subfamily B, 5)",no change,no change,0.62,0.1,inactive
H4C14 (H4 clustered histone 14),no change,no change,0.23,-1.05,inactive
RHEX (regulator of hemoglobinization and erythroid cell expansion),no change,no change,-2.12,-0.7,inactive
APOE (apolipoprotein E),no change,no change,-1.19,0.41,inactive
"CFC1 (cryptic, EGF-CFC family member 1)",no change,no change,-0.26,-0.3,inactive
SPPL2B (signal peptide peptidase like 2B),no change,no change,-1.72,0.79,inactive

Called active, of those listed so far:
Gene,viability hit class,caspase hit class,viability robust z-score,caspase robust z-score,activity call
SKIC2 (SKI2 subunit of superkiller complex),no change,CA2 (caspase activation),-2.46,5.54,active

The list goes on:
Gene,viability hit class,caspase hit class,viability robust z-score,caspase robust z-score,activity call
SLC4A2,no change,no change,-0.43,-0.64,inactive
WFIKKN1,no change,no change,0.24,-0.76,inactive
COX7C (cytochrome c oxidase subunit 7C),no change,no change,0.26,0.29,inactive
SNAPC2 (small nuclear RNA activating complex polypeptide 2),no change,no change,-1.06,-1.1,inactive
SLC39A2,no change,no change,-0.99,0.9,inactive
GGT6 (gamma-glutamyltransferase 6),no change,no change,-0.42,0.12,inactive
TMUB1 (transmembrane and ubiquitin like domain containing 1),no change,no change,-0.72,4.25,inactive
CHST8 (carbohydrate sulfotransferase 8),no change,no change,-1.34,2.23,inactive
ZKSCAN4 (zinc finger with KRAB and SCAN domains 4),no change,no change,0.34,-0.44,inactive
UCK2 (uridine-cytidine kinase 2),no change,no change,-0.26,-1.04,inactive
PGPEP1 (pyroglutamyl-peptidase I),no change,no change,-0.96,0.44,inactive
LIX1L (limb and CNS expressed 1 like),no change,no change,0.7,-1.16,inactive
UTP20 (UTP20 small subunit processome component),no change,no change,-0.4,-0.87,inactive
ZNF124 (zinc finger protein 124),no change,no change,-1.29,-0.74,inactive
SNAP29 (synaptosome associated protein 29),no change,no change,-0.44,-0.41,inactive
FBXO42 (F-box protein 42),no change,no change,0.69,0.37,inactive
GSG1L (GSG1 like),no change,no change,-0.3,-0.8,inactive
SAC3D1 (SAC3 domain containing 1),no change,no change,-0.26,0.36,inactive
ARSB (arylsulfatase B),no change,no change,0.18,-0.08,inactive
MPLKIP (M-phase specific PLK1 interacting protein),no change,no change,-1.49,2.56,inactive
"ST8SIA3 (ST8 alpha-N-acetyl-neuraminide alpha-2,8-sialyltransferase 3)",no change,no change,1.24,1.45,inactive
SOX18 (SRY-box transcription factor 18),no change,no change,0,-0.03,inactive
ARPC5L (actin related protein 2/3 complex subunit 5 like),no change,no change,0.99,-0.55,inactive
ZNF639 (zinc finger protein 639),no change,no change,-0.61,0.52,inactive
